# Test results as given in PubChem BioAssay (NCATS).
# This list was built around the results that the source calls inconclusive (neither active nor inactive); the mix of calls is not that of the screen. Where the call is inconclusive, the potency comes from a doubtful curve fit. Activity calls are given as the source filed them. The call rests on the fitted dose curve; in most records, active means well fitted cell-killing curve with a large enough effect; inconclusive means small, poorly fitted or top-dose-only effect, or effect the other way; inactive means no such curve, though single readings can be large or run the other way.
# Assay: Quantitative High-Throughput drug screen in 47 multiple myeloma cell lines against the NCATS MIPE library collection: H1112_PLB cell viability assay (AID 1918967; further: nearly all actives have a fitted effect of over 30% in size)
# Conditions: H1112 myeloma cells viability, ATP luminescence, 48 h; series mostly up to 45.8 µM
# Description: PI: Beverly A. Mock Ph.D.
# Laboratory of Cancer Biology and Genetics,
# Center for Cancer Research, National Cancer Institute,
# National Institute of Health, Bethesda, Maryland
# Drug resistance and disease progression are common in multiple myeloma (MM) patients, underscoring the need for new therapeutic combinations. […] We hypothesized that effective combinations would reduce MYC expression and enhance p16 activity. […] These preclinical data identify potentially useful drug combinations for evaluation in drug-resistant MM and reveal potential mechanisms of combined drug sensitivity.
# Described herein is the primary MIPE qHTS used to cherrypick compounds. Validated compounds were then further tested for potential synergistic activiy.
# [1] Peat TJ, Gaikwad SM, Dubois W, Gyabaah-Kessie N, Zhang S, Gorjifard S, Phyo Z, Andres M, Hughitt VK, Simpson RM, Miller MA, Girvin AT, Taylor A, Williams D, D'Antonio N, Zhang Y, Rajagopalan A, Flietner E, Wilson K, Zhang X, Shinn P, Klumpp-Thomas C, McKnight C, Itkin Z, Chen L, Kazandijian D, Zhang J, Michalowski AM, Simmons JK, Keats J, Thomas CJ, Mock BA. Drug combinations identified by high-throughput screening promote cell cycle transition and upregulate Smad pathways in myeloma. Cancer Lett. 2023 Aug 1;568:216284. doi: 10.1016/j.canlet.2023.216284. Epub 2023 Jun 24. PMID: 37356470; PMCID: PMC10408729.
# SEQUENCE No. (e.g., 1, 2, 3, etc.); […] (e.g., Cells, Incubation, Reagent, etc.); VALUE and DESCRIPTION.
# 1; Cells; 5 uL; white, solid bottom 1536-well Greiner assay plate.
# 2; Compounds; 23 nL; Kalypsis pin tool (Wako USA) equipped with a 1536-well pin head to transfer to the assay plates.
# 3; Incubation; 48 hours; 37C incubation.
# 4; Reagent;5uL; CellTiter Glo (Promega).
# 5; Detector; 425V; Luminescence; Viewlux PerkinElmer.
# NOTES (numbers refer to Sequence numbers above)
# 1. The cell-based screening methods employed in this study were like those previously published. Briefly, the corresponding myeloma cell lines were screened in 1,536-well plates with 500 cells, 5-uL per well for inhibition of cell viability (assessed by measuring ATP levels with CellTiterGlo).
# 2. NCATS MIPE 4.0 library of approved and investigational drugs were added using the Kalypsis pin tool. Wells treated with DMSO only for 100% viability and media only wells for 0% viability were used as controls.
# 3. The assay plates were covered and incubated for 48 hours in a 37C, 5% CO2 incubator with controlled humidity.
# 4. After 48 hours, CellTilter-GloTM luminescent substrate mix (Promega) reagent was added to the assay plate and plates we incubated for 5 min at room temperature.
# 5. Signal was measured as median relative luminescence units on a ViewLux (PerkinElmer) multiplate reader.
# [1] Heske CM, Davis MI, Baumgart JT, Wilson K, Gormally MV, Chen L, Zhang X, Ceribelli M, Duveau DY, Guha R, Ferrer M, Arnaldez FI, Ji J, Tran HL, Zhang Y, Mendoza A, Helman LJ, Thomas CJ. Matrix Screen Identifies Synergistic Combination of PARP Inhibitors and Nicotinamide Phosphoribosyltransferase (NAMPT) Inhibitors in Ewing Sarcoma. Clin Cancer Res. 2017 Dec 1;23(23):7301-7311. doi: 10.1158/1078-0432.CCR-17-1121. Epub 2017 Sep 12. PMID: 28899971; PMCID: PMC6636827.
# Potency means the concentration at half of the fitted maximal effect.
row,Compound,Potency
1,COc1ccc2c(c1)c(CC(=O)O)c(C)n2C(=O)c1ccc(Cl)cc1,"inconclusive: 13.2 µM [cytotoxic, partial curve]"
2,CCCc1nn(C)c2c(=O)[nH]c(-c3cc(S(=O)(=O)N4CCN(C)CC4)ccc3OCC)nc12,"inconclusive: 20.9 µM [cytotoxic, partial curve]"
3,CC1(C)CC(=O)c2c(C(F)(F)F)nn(-c3ccc(C(N)=O)c(NC4CCC(OC(=O)CN)CC4)c3)c2C1 (stereo not given),"inconclusive: 0.0743 µM [cytotoxic, full curve]"
4,Nc1ccn([C@@H]2CS[C@H](CO)O2)c(=O)n1,"inconclusive: 34 µM [cytotoxic, partial curve]"
5,COc1ccc2c(c1)c(C1=C(c3c[nH]c4ccccc34)C(=O)NC1=O)cn2CCCN(C)C,"inconclusive: 26.4 µM [cytotoxic, single point]"
6,Fc1ccc(Cl)cc1-c1nc(Nc2ccncc2)c2nccnc2n1,inactive
7,CN1C(C(=O)Nc2ccccn2)=C(O)c2sccc2S1(=O)=O,inactive
8,Cc1ccc(S(=O)(=O)OCC(=O)Nc2ccc(C(=O)O)c(O)c2)cc1,active: 20.9 µM
9,NS(=O)(=O)c1cc2c(cc1Cl)NC=NS2(=O)=O,inactive
10,COc1ccc2c(c1)c(CC(=O)OCC(=O)O)c(C)n2C(=O)c1ccc(Cl)cc1,inactive
11,Nc1nccc(-c2ccc3noc(-c4ccc(Cl)cc4)c3c2)n1,inactive
12,CCC[C@H]1C[C@H](C(=O)N[C@@H]([C@@H]2O[C@@H](SC)[C@@H](O)[C@@H](O)[C@@H]2O)[C@H](C)Cl)N(C)C1,inactive
13,COc1ccc2nc(S(=O)Cc3ncc(C)c(OC)c3C)[nH]c2c1 (stereo not given),"inconclusive: 33.2 µM [cytotoxic, single point]"
14,CCOC(=O)[C@@H](N)CCC(=O)N[C@@H](CSCc1ccccc1)C(=O)N[C@@H](C(=O)OCC)c1ccccc1,"inconclusive: 29.6 µM [cytotoxic, single point]"
15,CN1CCN(c2ncc(-c3cc(Cl)cc(Cl)c3Cl)c(N)n2)CC1,"inconclusive: 33.2 µM [cytotoxic, single point]"
16,O=C(O)[C@H](Cc1c[nH]c2ccccc12)N1C(=O)c2ccccc2C1=O,"inconclusive: 67.9 µM [cytotoxic, single point]"
17,O=C1C(c2c(O)[nH]c3ccccc23)=Nc2ccccc21,"inconclusive: 0.148 µM [cytotoxic, full curve, poor fit]"
18,c1ccc(-c2oc3ncnc(NC[C@@H]4CCCO4)c3c2-c2ccccc2)cc1,inactive
19,CN(C)CCN(Cc1ccc(Cl)cc1)c1ccccn1,"inconclusive: 20.9 µM [cytotoxic, partial curve]"
20,O=c1ncn2nc(Sc3ccc(F)cc3F)ccc2c1-c1c(Cl)cccc1Cl,"inconclusive: 18.7 µM [cytotoxic, partial curve]"

row,Compound,Potency
1,Oc1ccc(C2CNCCc3c2cc(O)c(O)c3Cl)cc1 (stereo not given),inactive
2,COC(=O)[C@H](c1ccccc1Cl)N1CCc2sccc2C1,"inconclusive: 37.2 µM [cytotoxic, single point]"
3,Cn1c(=O)c2c(ncn2C)n(C)c1=O,inactive
4,Cc1cc(-c2nnc3n2CCCCC3)c(C)n1-c1ccccc1,inactive
5,CSc1cccc(Nc2ncc3cc(-c4c(Cl)cccc4Cl)c(=O)n(C)c3n2)c1,inactive
6,CCC(C)(C)c1ccc(CC(C)CN2C[C@@H](C)O[C@@H](C)C2)cc1 (stereo not given in full),"inconclusive: 16.6 µM [cytotoxic, partial curve]"
7,Nc1ncnc2c1c(-c1cccc(OCc3ccccc3)c1)cn2C1CC(CN2CCC2)C1 (stereo not given),"inconclusive: 5.9 µM [cytotoxic, partial curve]"
8,C[C@H](CCC(=O)O)[C@H]1CC[C@H]2[C@H]3[C@@H](CC[C@]12C)[C@@]1(C)CC[C@@H](O)C[C@H]1C[C@@H]3O,"inconclusive: 11.8 µM [cytotoxic, partial curve, poor fit]"
9,C=CCc1cccc(C=NNC(=O)CN2CCN(Cc3ccccc3)CC2)c1O,"inconclusive: 16.6 µM [cytotoxic, partial curve]"
10,O=C1[C@H](Cc2ccc(O)cc2)N2C(=O)CCN(C(=O)NCc3ccccc3)[C@H]2CN1Cc1cccc2ccccc12,"inconclusive: 14.8 µM [cytotoxic, partial curve]"
11,FC(F)c1nc2ccccc2n1-c1nc(N2CCOCC2)nc(N2CCOCC2)n1,"inconclusive: 0.418 µM [cytotoxic, full curve]"
12,O=C(c1ccc(C=Cc2n[nH]c3ccccc23)cc1)N1CCNCC1,"inconclusive: 4.69 µM [cytotoxic, partial curve]"
13,COCC(=O)NCC=Cc1ccc2ncnc(Nc3ccc(Oc4ccc(C)nc4)c(C)c3)c2c1,"inconclusive: 18.7 µM [cytotoxic, partial curve]"
14,C[C@@]12C[C@@]3(O)O[C@@H](O1)[C@]1(COC(=O)c4ccccc4)[C@@H]3C[C@@]12O[C@@H]1O[C@H](CO)[C@@H](O)[C@H](O)[C@@H]1O,inactive
15,CC(=O)NC[C@H]1CN(c2ccc(N3CCOCC3)c(F)c2)C(=O)O1,inactive
16,COc1cc(CNC(=O)CCCCC=CC(C)C)ccc1O,inactive
17,CC(C)(C)C(=O)Oc1ccc(S(=O)(=O)Nc2ccccc2C(=O)NCC(=O)O)cc1,active: 18.7 µM
18,C=CCn1c(=O)c2cnc(Nc3ccc(N4CCN(C)CC4)cc3)nc2n1-c1cccc(C(C)(C)O)n1,active: 0.469 µM
19,Cc1ccc(C(=O)Nc2ccc(CN3CCN(C)CC3)c(C(F)(F)F)c2)cc1C#Cc1cnc2cccnn12,active: 2.09 µM
20,CN[C@H]1[C@@H](O[C@@H]2[C@H](O[C@@H]3[C@@H](O)[C@@H](O)[C@@H](N=C(N)N)[C@@H](O)[C@@H]3N=C(N)N)O[C@H](C)[C@@]2(O)C=O)O[C@@H](CO)[C@@H](O)[C@H]1O,inactive

# 2 entries drawn at random from those above, as already listed:
row,Compound,Potency
2,CCCc1nn(C)c2c(=O)[nH]c(-c3cc(S(=O)(=O)N4CCN(C)CC4)ccc3OCC)nc12,"inconclusive: 20.9 µM [cytotoxic, partial curve]"
15,CN1CCN(c2ncc(-c3cc(Cl)cc(Cl)c3Cl)c(N)n2)CC1,"inconclusive: 33.2 µM [cytotoxic, single point]"
